This note sets out measurements from PubChem BioAssay AID1458 (National Center for Advancing Translational Sciences (NCATS), 2008).

Among all 210,000 compounds or so, about 5,900 (2.8%) were called active. Another 5% or so got no clear call; they are omitted. Calls follow the shape of the dose curve; as a rule, active = well fitted activation curve with a large enough effect; inconclusive = small, poorly fitted or top-dose-only effect; inactive = no such curve, though single readings can be large or run the other way. The entries are a selection whose mix differs from that of the whole data set. Entries without a call were filed so in the source.
Potency is read from the fitted curve at half-maximal effect.

A short description of this test: qHTS Assay for Enhancers of SMN2 Splice Variant Expression. Also: nearly all actives have a fitted effect of over 55% in size. As to activity change, positive = activation: % of control where 0% means no effect. Conditions: HEK293 SMN2-luciferase splicing reporter, luminescence, 30-36 h; activity change, positive = activation: at 46.1 µM (top of the series) unless noted. Summed up: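 qHTS luciferase splicing reporter: luminescence rises when SMN2 exon 7 is included in transfected HEK293 cells. Compound exposure lasted 30-36 h at 37C, with 4.5 mM final sodium butyrate as control, followed by a ONE-Glo read.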
Background: Quantitative high-throughput screening tests each substance at several concentrations.
Turning to `Cc1cccc(/C(N)=N/OC(=O)c2ccco2)c1`, the Potency was active: 15.8 µM.
On to `COc1ccc(C(=O)Nc2ccccc2C(=O)N/N=C/c2ccco2)cc1`, for which the activity change, positive = activation was found to be 58%.
In the case of `CCc1cc2c(cc3c(=O)n(CC(=O)N4CCCCC4)ncn32)s1`, the activity change, positive = activation is -36.9%.
In the case of `CCOC(=O)C1=C(CNC2CCCCC2)NC(=O)NC1c1cc(C)ccc1C` (configuration not stated), the activity change, positive = activation amounted to 28.4%.
Take `O=c1cc(O)c2sc(Nc3cccc(C(F)(F)F)c3)nc2[nH]1`: the activity change, positive = activation was -0.371%.
For the molecule `CCOC(=O)/C=C1\SCC(=O)N1CC(=O)NCCc1ccc(F)cc1`, the activity change, positive = activation is -11.8%.
Regarding `CC(C)CNS(=O)(=O)c1ccc(OCC(=O)Nc2ccc3c(c2)OCCO3)cc1`, the activity change, positive = activation came out at 31%.
In the case of `c1ccc2sc(-c3ccc4c(c3)OCO4)nc2c1`, the Potency was active: 7.08 µM.
The same measure, in the same setting: for `CCOC(=O)c1sc(N/N=C/c2ccccc2)nc1C` the value was active: 12.6 µM.
In the case of `CCc1ccc(C(=O)Nc2ccc(S(=O)(=O)Nc3nc(C)cc(C)n3)cc2)o1`, the activity change, positive = activation is 86.1%.
On the same count and under the same terms, to `COC(=O)c1ccccc1NC(=O)CN(C)S(=O)(=O)c1ccc(OC)cc1` belongs 2.1%; to `Cc1ccc(-n2[nH]c(C)c(/C=N/NC(=O)c3cccc([N+](=O)[O-])c3)c2=O)cc1C`, -90.9%; to `N#Cc1cn(-c2ccccc2)nc1-c1cc2ccccc2oc1=O`, 50.6%.
Consider `CC(=O)N/N=C(\C)c1ccc(Br)cc1Br`, for which the activity change, positive = activation is 81.1%.
On the same count and under the same terms, for `Cc1cnc(NC(=O)c2cccc(S(=O)(=O)N3CC(C)OC(C)C3)c2)s1` (configuration not stated) the value was -69.9%.
Turning to `CC(C)c1ccc(NC(=O)CSc2ncccc2C(=O)Oc2cccc([N+](=O)[O-])c2)cc1`, the Potency was active: 10 µM.
Regarding `Cc1cccc(Nc2nnc(-c3ccc(N4CCOCC4)c([N+](=O)[O-])c3)c3ccccc23)c1`, the “activity change, positive = activation” value was inactive: -67.2%.
Turning to `CC(=O)c1ccc(NC(=O)c2cnn3ccccc23)cc1`, the “activity change, positive = activation” value is inactive: -36.7%.
`[O-]/[N+](=C\c1ccncc1)c1ccc(Br)cc1`: the activity change, positive = activation is 148%.
As to `Cc1ccc(/C=N/NC(=O)CSc2nc3ccccc3o2)cc1`, the activity change, positive = activation stood at 124%.
Regarding `Cc1cc(C)n(-c2ccc3cccc(NS(C)(=O)=O)c3n2)n1`, the activity change, positive = activation was -85.6%.
For the molecule `Cn1c(SCC(=O)N(C2CCCCC2)C2CCCCC2)nnc1-c1cccs1`, the activity change, positive = activation came out at 40.4%.
On the same count and under the same terms, to `CCOC(=O)c1ccccc1NC(=O)CC1SC(=NC)N(C)C1=O` (configuration not stated) belongs 22.6%; to `Cc1ccc(S(=O)(=O)N2CCN(C(=O)CN3CCOCC3)C2)cc1`, 20.9%; to `CN1C(=O)CC(Sc2ncccc2C(=O)O)C1=O` (configuration not stated), 9.59%.
Still for that read-out and setting: to `Nc1ccc(Sc2nnnn2-c2ccccc2)c(Cl)c1` belongs 32.3%.
As for `c1ccc(CNc2ncnc3c2cnn3Cc2ccccc2)cc1`, the Potency is active: 11.2 µM.
As to `COc1ccc(NC(=O)COC(C)=O)cc1OC`, the “activity change, positive = activation” value is inactive: 24%.
As to `CCCC(=O)Nc1ccc(Cl)c(NC(=O)c2ccco2)c1`, the activity change, positive = activation was found to be 51.1%.
Consider `Cc1ccc(/C=N/Nc2nnc(Cl)c3ccccc23)cc1`, for which the Potency is active: 4.47 µM.
For the molecule `Cc1cc(C(=O)COC(=O)c2ccccc2O)c(C)n1Cc1cccs1`, the activity change, positive = activation was -80.5%.
With `Cc1cc(-c2ccc(Cl)cc2)n2nc(N)nc2n1`, the activity change, positive = activation is 31.2%.
On the same count and under the same terms, for `O=C1C=C(NCCO)C(=O)c2cnccc21` the value was inactive: -115%; for `Cc1ccc(Cn2c(/C=C/c3ccco3)nc3ccccc32)cc1`, 133%.
With `COc1ccc2cc3c(N)nn(C(=O)c4cccc([N+](=O)[O-])c4)c3nc2c1`, the “activity change, positive = activation” value is inactive: -34.9%.
In the case of `O=c1cc(/C=C/c2ccccc2)oc2ccccc12`, the Potency is active: 11.2 µM.
`CN(C)CCN(Cc1ccco1)C(=O)c1cc2c(Cl)nc3ccccc3c2s1`: the activity change, positive = activation was -55.3%.
With `COc1ccc(NS(=O)(=O)c2cc(NC(=O)CNC(=O)c3cccc(OC)c3)ccc2C)cc1`, the “activity change, positive = activation” value is inactive: 20.6%.
For `O=C(OCC(=O)N1CCCC1)c1ccccc1OCc1ccccc1`, the Potency was active: 12.6 µM.
`COc1cccc2[nH]c(-c3ccccn3)nc12`: the Potency is active: 3.98 µM.
Regarding `O=C(Nc1nc2ccc(F)cc2s1)c1ccccn1`, the “activity change, positive = activation” value was inactive: -54.1%.
Turning to `O=c1c(C=NCCCn2ccnc2)c(-c2ccccc2)[nH]n1-c1nc2ccccc2s1`, the activity change, positive = activation turned out to be 32%.
On to `Cc1ccccc1C(=O)Nc1ccc(N2CCCCCC2)cc1`, for which the Potency is active: 12.6 µM.
Consider `Cc1cc(C(C)(C)C)cc(S(=O)(=O)Nc2ccc(O)c(C(=O)O)c2)c1C`, for which the activity change, positive = activation was 34.1%.
As to `O=C(O)c1cccnc1Br`, the activity change, positive = activation is -49.6%.
For the molecule `CCN(CC)C(=O)c1oc2ccc(S(=O)(=O)N3CCCCCC3)cc2c1C`, the activity change, positive = activation was -61.5%.
Same read-out and setting: to `Cc1ccc(-n2c(CCC(=O)O)ccc2-c2cccs2)cc1Cl` belongs 61.8%; to `Clc1ncccc1-c1nc2ccccc2s1`, 103%.
Take `COc1c2c(cc3occ(-c4ccc5c(c4)OCO5)c(=O)c13)OC(C)(C)C=C2`: the Potency was active: 6.31 µM.
As for `O=C(Cn1nc(C(F)F)cc1C(F)F)NNC(=S)Nc1ccc(Cl)cc1`, the activity change, positive = activation is -31.4%.
The same measure, in the same setting: for `CCOC(=O)C1CCCCN1Cc1cccc(OC)c1OC` (configuration not stated) the value was 27%.
Regarding `COc1ccc(NC(=O)c2cc(C)on2)cc1`, the Potency was active: 11.2 µM.
As for `COc1cc(C)c(S(=O)(=O)N2CCOCC2)cc1C(C)C`, the activity change, positive = activation amounted to 11.7%.
The same measure, in the same setting: for `Cc1ccc(NC(=O)/C(C#N)=C(\N)C(Cl)(Cl)Cl)nc1` the value was 273%; for `CSc1nc2nc3c(cn2n1)C(=O)CC(c1ccccc1)C3` (configuration not stated), 35.9%.
On to `O=C(O)CNC(=O)c1nc(-c2ccccc2)n(-c2ccccc2)n1`, for which the activity change, positive = activation was 52.8%.
As for `CN1c2ccccc2C(O)=C(C(=O)Nc2ccccc2)S1(=O)=O`, the activity change, positive = activation was 33%.
